Source: patent publication US20190292256A1, “Compounds and Methods to Measure Metabolic Function and Restore Normal Metabolic Function” (priority 2010, published 2019)
At least one compound was matched to its structure with a doubt left.

Columns and labels:
[1] = tested on: TNFα and IL-6 transcript expression by macrophages; assay: Wnt5a-stimulated TNFα and IL-6 transcript expression in peritoneal macrophages (QRT-PCR); format: cell-based, mouse; settings: Wnt5a 200 ng/ml, 24 h; SP600125 15 μM pretreatment
Description: (§1) Mouse 3T3-L1 cells (ATCC) were maintained in DMEM with 10% fetal bovine serum (FBS) and differentiated into adipocytes by treatment with DMEM supplemented with 5 μg/ml of insulin, 0.5 mM 1-methyl-3-isobutyl-xanthin, and 1 μM dexamethazone. At day 7 after differentiation, 3T3-L1 adipocytes were treated with tunicamycin, H2O2, TNFα or vehicle for 24 h. Peritoneal macrophages from lean WT C57BL/6 mice were maintained in DMEM supplemented 10% FBS and placed in DMEM with 0.5% FBS for 16 h for serum starvation. Macrophages were incubated in the conditioned media from 3T3-L1 adipocytes transduced with adenoviral vectors in the presence of Wnt5a protein (200 ng/ml) or vehicle for 24 h. In some experiments, cells were pretreated with SP600125 (15 μM) or vehicle for 1 h followed by treatment with Wnt5a protein.
(§2) Epididymal fat pads from male wild-type C57BL/6 mice fed a normal diet were excised, minced in PBS and digested with 1 mg/ml collagenase Type 1 (Worthington Chemical Corporation) at 37° C. for 30 min. The digested fat tissue was filtered through a mesh and centrifuged at 1000 rpm for 5 min to separate floating adipocytes from the SV fraction. Measurement of mRNA Levels Gene expression level was quantified by real-time PCR. Total RNA was prepared with the use of a Qiagen kit. cDNA was produced using ThermoScript RT-PCR Systems (Invitrogen). […]

[2] = tested on: IL-6 expression in adipocytes; assay: Wnt5a-stimulated IL-6 expression in 3T3-L1 adipocytes (QRT-PCR); format: cell-based, mouse; settings: Wnt5a 200 ng/ml 24 h, SP600125 15 μM pretreatment
Description: as §1, §2

## Oc1c2ccccc2c2c3c(cccc13)N=N2 [SP600125]
[1]
  effect on Wnt5a-stimulated expression of IL-6 in macrophages: diminished
  effect on Wnt5a-stimulated expression of TNFα in macrophages: diminished
[2]
  effect on stimulatory effects of Wnt5a on IL-6 expression in adipocytes: blocked
